From patent publication US20150266968A1 (COMPLIX, published 2015)
No constants are given. Whether binding was seen depends on the method and setting. Where a sequence is shown, tags or fusion partners need not be part of it.

Protein sequences, listed by entry. Tags and fused reporters are not part of them. Lines headed by an entry give the natural chain unless they say otherwise; changes in a name come on top. Residues count along the entry.
UniProt P10415, residues 1-207: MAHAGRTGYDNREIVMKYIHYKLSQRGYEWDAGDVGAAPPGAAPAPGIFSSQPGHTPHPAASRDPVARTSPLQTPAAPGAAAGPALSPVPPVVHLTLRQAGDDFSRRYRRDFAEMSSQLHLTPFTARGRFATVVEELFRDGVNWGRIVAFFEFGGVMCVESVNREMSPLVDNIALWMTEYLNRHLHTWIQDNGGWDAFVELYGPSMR
UniProt Q07817, residues 1-209: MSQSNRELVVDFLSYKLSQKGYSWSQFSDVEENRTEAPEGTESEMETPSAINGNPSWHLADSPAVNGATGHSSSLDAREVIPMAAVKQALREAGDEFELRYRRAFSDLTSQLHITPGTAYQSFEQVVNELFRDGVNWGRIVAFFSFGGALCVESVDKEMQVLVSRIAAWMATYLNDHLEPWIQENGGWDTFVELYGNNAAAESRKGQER

B1: Alphabody MB23_hiR-V5 (designed binder)
chain: MSIEQIQKEITTIQEVIAAIQKYIYTMTGGSGGSGGMSIQQIQAAIRRIQRAIRRIQRAIRRMTGSGGGGSGMSIEEIQKQIAAIQEQIVAIYKQIMAMASHHHHHHGKPIPNPLLGLDST
notes: Cationized Alphabody directed against IL-23, with His-tag and V5 tag; Used as control in the BCL-2 family ELISA; also called cationized MB23; control Alphabody MB23-hiR-V5
B2: Alphabody AB1_A2aF_hiKR3-V5 (designed binder)
chain: MSIQQIQKQFKRIQKQIKRIEKQIKRMTGGSGGSGGMSIEEITKQIAAIQLRIVGDQVQIYAMTGGSGGGSGGGSGGGSGGSIEEIKKSIRAIQKEIKKIQKKIKKMTPHHHHHHHHHHGKPIPNPLLGLDST

Assays:
[1] = target: GST-tagged recombinant human BCL-2 isoform alpha (BCL-2a) with a C-terminal deletion of 32 amino acids (human) (UniProt P10415); experiment: ELISA; Alphabody (500 nM) captured by anti-V5 antibody, five-fold dilutions of GST-tagged protein, anti-GST-HRP detection
[2] = target: GST-tagged recombinant human BCL-XL with a C terminal deletion of 24 amino acids (human) (UniProt Q07817); experiment: as above
[3] = target: GST-tagged recombinant human BCL-XL with a C terminal deletion of 24 amino acids (human) (UniProt Q07817); experiment: condition: 1000 nM (end of the drawn line; last visible marker at about 8 nM); ELISA: Alphabody (500 nM) captured by immobilized anti-V5 antibody, five-fold dilutions of GST-BCL-XL, detection with anti-GST-HRP, OD read at 492 nm and 630 nm
[4] = target: GST-tagged recombinant human BCL-2 isoform alpha (BCL-2a) with a C-terminal deletion of 32 amino acids (human) (UniProt P10415); experiment: ELISA: Alphabody (500 nM) captured by immobilized anti-V5 antibody, five-fold dilutions of GST-BCL-2a, detection with anti-GST-HRP, OD read at 492 nm and 630 nm

Row | Binder | binding [1] | binding [2] | binding [3] | binding [4]
1 | B1 | no binding | no binding | no binding | no binding (tested: 8 nM)
2 | B2 | no binding |  |  | no binding
